# Measurements as given in the supplement of paper PMC10032668.
# The chains behind the UniProt entries cited, without tags or fusion partners.
# CKS2, P33552, UniProt P33552, whole entry: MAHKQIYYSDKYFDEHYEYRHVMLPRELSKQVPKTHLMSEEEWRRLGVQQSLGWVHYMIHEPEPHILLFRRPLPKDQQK
# NDUFB7, P17568, UniProt P17568, whole entry: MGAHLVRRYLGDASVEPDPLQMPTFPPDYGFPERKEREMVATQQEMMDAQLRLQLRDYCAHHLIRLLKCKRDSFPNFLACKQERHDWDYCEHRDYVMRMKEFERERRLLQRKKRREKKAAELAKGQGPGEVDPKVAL
# PDLIM7, Q9NR12, UniProt Q9NR12, whole entry: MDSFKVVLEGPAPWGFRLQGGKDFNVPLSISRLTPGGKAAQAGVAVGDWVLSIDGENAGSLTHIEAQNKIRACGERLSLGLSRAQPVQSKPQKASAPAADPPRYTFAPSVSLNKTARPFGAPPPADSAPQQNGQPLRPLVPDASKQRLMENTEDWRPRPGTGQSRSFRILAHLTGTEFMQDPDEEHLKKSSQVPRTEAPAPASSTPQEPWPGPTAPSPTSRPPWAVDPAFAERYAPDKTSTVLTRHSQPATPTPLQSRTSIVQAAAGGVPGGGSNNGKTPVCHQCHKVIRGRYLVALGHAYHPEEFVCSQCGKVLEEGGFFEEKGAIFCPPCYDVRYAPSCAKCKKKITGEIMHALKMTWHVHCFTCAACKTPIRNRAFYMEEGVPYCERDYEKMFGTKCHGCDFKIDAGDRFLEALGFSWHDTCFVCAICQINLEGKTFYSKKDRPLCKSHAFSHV
# COX4I1, P13073, UniProt P13073, whole entry: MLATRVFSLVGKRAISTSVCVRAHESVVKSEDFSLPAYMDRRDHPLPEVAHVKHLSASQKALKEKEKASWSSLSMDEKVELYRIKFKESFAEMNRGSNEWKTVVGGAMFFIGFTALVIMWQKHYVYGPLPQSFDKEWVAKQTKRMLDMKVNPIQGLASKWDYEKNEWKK
# EIF3B, P55884, UniProt P55884, whole entry: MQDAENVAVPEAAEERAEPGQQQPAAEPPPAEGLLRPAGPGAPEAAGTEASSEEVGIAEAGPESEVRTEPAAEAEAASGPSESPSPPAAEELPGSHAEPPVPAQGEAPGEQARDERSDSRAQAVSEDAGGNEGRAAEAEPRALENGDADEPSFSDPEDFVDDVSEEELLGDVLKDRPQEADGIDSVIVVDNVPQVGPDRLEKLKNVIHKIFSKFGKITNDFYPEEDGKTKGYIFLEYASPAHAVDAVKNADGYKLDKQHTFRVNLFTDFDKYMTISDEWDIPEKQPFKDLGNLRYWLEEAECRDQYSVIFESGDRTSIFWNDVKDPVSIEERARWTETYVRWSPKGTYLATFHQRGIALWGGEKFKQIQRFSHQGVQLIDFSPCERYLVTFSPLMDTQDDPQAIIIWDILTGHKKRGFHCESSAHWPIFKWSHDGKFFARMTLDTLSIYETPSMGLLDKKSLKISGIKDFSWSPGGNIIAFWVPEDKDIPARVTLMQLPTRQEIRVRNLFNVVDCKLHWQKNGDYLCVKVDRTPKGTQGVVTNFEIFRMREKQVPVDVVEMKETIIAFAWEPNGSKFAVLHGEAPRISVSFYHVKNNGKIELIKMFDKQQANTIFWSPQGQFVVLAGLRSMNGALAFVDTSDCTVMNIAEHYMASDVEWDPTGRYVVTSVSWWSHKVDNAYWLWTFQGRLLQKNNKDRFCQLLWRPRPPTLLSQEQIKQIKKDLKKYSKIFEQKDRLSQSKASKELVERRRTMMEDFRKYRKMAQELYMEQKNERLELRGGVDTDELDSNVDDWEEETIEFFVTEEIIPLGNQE
# KHDRBS1, Q07666, UniProt Q07666, whole entry: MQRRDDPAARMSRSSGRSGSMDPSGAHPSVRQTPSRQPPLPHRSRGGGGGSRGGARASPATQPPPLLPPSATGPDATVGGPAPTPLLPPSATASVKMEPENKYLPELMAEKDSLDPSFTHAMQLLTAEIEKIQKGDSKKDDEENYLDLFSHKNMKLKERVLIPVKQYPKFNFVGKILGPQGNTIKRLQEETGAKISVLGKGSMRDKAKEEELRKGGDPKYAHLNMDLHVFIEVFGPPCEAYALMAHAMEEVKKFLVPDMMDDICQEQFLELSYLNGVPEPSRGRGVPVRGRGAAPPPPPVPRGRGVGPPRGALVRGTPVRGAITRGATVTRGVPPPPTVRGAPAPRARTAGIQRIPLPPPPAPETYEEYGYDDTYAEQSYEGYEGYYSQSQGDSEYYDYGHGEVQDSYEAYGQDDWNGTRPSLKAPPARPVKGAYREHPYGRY
# NDUFA10, O95299, UniProt O95299, whole entry: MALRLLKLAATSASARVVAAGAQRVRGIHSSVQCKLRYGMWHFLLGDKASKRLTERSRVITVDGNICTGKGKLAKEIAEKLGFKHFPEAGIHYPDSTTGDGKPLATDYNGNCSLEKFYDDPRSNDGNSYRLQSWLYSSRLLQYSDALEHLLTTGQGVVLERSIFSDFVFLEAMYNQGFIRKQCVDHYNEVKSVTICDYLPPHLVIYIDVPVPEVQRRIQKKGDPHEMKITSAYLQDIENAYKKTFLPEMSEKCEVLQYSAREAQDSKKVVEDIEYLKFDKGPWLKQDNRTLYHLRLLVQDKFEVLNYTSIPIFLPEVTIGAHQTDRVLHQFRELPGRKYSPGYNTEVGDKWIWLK
# NUDT21, O43809, UniProt O43809, whole entry: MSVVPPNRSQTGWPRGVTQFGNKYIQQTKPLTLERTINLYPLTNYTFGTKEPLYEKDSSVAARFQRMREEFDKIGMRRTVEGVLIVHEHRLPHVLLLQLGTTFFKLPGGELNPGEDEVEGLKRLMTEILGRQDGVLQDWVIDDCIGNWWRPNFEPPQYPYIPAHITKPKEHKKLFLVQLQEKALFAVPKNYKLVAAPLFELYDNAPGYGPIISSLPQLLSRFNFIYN
# CFDP1, Q9UEE9, UniProt Q9UEE9, whole entry: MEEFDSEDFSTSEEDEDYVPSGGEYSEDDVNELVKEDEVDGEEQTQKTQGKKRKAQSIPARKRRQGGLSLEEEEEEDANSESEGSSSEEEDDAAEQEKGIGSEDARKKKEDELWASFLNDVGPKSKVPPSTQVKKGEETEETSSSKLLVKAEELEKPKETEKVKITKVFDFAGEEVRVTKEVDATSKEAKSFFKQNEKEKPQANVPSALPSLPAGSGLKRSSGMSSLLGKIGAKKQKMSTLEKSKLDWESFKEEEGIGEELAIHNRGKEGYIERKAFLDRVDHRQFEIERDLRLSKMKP
# DPY30, Q9C005, UniProt Q9C005, whole entry: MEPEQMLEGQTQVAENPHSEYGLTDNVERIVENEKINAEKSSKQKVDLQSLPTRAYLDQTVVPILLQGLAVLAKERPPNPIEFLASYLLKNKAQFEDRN
# SNRNP200, O75643, UniProt O75643, whole entry: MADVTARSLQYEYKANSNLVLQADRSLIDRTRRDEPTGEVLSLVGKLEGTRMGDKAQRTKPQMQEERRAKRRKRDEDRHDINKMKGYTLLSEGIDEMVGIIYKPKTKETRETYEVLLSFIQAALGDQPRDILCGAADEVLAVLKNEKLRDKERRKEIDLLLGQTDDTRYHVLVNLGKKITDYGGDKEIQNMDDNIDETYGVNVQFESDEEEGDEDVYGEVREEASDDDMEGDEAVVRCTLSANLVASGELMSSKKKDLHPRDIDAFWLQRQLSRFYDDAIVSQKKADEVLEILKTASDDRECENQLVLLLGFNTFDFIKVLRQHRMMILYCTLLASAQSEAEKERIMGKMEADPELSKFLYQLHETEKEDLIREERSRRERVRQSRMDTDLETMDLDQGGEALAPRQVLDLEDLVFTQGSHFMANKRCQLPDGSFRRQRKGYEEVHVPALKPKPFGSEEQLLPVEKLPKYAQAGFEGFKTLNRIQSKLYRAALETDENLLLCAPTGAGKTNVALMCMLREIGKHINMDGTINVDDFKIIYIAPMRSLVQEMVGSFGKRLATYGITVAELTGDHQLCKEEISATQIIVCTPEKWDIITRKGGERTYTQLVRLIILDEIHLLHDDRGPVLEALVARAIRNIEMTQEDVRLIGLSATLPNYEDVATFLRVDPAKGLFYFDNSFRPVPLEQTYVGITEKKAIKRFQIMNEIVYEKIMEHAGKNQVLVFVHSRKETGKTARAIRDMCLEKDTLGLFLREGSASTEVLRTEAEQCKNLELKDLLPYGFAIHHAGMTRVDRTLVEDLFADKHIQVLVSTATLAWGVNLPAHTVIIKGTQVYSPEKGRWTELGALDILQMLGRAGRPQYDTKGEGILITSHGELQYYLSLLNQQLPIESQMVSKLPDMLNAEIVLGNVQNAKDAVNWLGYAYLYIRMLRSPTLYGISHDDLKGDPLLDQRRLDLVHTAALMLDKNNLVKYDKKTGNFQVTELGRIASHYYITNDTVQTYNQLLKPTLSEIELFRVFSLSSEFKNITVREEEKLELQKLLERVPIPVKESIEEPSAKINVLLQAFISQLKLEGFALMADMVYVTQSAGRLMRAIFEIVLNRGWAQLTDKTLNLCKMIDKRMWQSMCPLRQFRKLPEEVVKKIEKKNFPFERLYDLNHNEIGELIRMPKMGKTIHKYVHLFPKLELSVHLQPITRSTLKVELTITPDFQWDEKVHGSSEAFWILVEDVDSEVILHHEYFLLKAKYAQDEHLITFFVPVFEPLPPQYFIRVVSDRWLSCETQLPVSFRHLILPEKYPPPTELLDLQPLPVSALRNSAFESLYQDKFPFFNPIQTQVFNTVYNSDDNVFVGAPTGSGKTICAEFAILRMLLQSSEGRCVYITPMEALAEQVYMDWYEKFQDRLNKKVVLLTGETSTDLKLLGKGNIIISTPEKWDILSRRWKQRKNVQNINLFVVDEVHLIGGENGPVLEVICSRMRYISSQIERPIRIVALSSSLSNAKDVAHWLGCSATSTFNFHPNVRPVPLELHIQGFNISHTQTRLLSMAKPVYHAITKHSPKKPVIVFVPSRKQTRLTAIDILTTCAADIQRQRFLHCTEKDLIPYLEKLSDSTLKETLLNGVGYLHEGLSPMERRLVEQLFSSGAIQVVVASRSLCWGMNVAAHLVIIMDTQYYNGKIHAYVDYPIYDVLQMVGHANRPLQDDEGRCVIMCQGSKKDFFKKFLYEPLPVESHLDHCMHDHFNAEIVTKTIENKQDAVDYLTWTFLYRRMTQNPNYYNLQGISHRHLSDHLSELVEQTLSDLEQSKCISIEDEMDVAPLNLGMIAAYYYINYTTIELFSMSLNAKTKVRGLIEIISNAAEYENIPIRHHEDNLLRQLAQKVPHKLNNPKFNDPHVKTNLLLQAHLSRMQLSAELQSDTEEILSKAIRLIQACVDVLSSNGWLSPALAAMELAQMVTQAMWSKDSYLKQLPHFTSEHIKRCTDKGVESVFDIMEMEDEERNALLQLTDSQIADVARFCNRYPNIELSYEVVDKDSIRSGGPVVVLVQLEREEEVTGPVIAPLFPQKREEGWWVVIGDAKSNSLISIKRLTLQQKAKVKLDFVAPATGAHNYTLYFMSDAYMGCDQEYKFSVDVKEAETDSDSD
# TAF5, Q15542, UniProt Q15542, whole entry: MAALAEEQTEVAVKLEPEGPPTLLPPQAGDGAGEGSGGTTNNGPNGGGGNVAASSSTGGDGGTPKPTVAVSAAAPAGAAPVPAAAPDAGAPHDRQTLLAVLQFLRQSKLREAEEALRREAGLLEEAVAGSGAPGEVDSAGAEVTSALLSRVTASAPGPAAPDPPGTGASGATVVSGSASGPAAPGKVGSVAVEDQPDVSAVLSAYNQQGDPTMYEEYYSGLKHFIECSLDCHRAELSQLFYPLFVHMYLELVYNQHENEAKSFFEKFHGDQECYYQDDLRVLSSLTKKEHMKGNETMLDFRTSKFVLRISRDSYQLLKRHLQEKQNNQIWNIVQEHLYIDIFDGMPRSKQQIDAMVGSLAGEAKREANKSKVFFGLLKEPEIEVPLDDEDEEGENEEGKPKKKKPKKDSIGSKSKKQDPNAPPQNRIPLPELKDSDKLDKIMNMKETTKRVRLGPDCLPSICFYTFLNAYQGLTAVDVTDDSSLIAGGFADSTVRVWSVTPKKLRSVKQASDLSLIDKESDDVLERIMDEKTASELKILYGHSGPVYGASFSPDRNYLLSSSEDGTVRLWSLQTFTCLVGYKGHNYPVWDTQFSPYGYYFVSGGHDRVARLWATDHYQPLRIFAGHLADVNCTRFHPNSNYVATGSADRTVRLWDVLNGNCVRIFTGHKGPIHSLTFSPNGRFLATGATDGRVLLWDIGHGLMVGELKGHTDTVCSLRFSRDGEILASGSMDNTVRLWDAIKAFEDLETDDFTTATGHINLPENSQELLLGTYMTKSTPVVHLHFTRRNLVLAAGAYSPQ
# VIM, P08670, UniProt P08670, whole entry: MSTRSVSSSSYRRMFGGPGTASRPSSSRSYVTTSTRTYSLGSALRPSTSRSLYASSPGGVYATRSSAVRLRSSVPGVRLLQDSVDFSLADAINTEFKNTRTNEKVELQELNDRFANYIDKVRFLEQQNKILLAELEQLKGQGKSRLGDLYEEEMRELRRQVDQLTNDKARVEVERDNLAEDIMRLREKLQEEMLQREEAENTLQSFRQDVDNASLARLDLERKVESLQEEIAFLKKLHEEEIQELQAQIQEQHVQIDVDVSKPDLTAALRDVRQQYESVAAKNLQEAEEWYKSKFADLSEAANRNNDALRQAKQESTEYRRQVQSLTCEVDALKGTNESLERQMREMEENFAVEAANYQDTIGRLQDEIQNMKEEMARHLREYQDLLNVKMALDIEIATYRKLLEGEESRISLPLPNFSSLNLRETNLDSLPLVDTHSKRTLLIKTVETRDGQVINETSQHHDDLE
# The other results are listed elsewhere or left out. The list holds hits alone, and they repeat only in part.
# Columns and labels:
# Test in all cases: PRISMA enrichment of interactor (LFQ) in peptide spot vs all other peptide spots (log2 fold change); higher = stronger / more specific binding of the interactor to the peptide
# [1] = biological target: ANXA7, P20073
# Experimental: (§1)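 PRISMA: 15-aa overlapping tiles (offset 8 aa) of 60 microproteins, plus SOS1/GLUT1 control peptides, were spot-synthesized on cellulose membranes in triplicate. Membranes were incubated with benzonase-treated HEK293T lysate, and bound proteins were identified by LC-MS/MS with LFQ. Enrichment is the log2 fold change of each protein in one spot versus all other spots. Only interactors passing the significance cutoff are listed.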
# [2] = biological target: AP2A1, O95782
# Experimental: as §1
# [3] = biological target: AP2B1, P63010
# Experimental: as §1
# [4] = biological target: CKS2, P33552
# Experimental: as §1
# [5] = biological target: CSRP2, Q16527
# Experimental: as §1
# [6] = biological target: CSTF1, Q05048
# Experimental: as §1
# [7] = biological target: DNAJA3, Q96EY1
# Experimental: as §1
# [8] = biological target: EWSR1, Q01844
# Experimental: as §1
# [9] = biological target: FAM168A, Q92567
# Experimental: as §1
# [10] = biological target: FAM98A, Q8NCA5
# Experimental: as §1
# [11] = biological target: FUS, P35637
# Experimental: as §1
# [12] = biological target: GABARAPL2, P60520
# Experimental: as §1
# [13] = biological target: GAR1, Q9NY12
# Experimental: as §1
# [14] = biological target: HNRNPA1, P09651
# Experimental: as §1
# [15] = biological target: HNRNPA2B1, P22626
# Experimental: as §1
# [16] = biological target: HNRNPA3, P51991
# Experimental: as §1
# [17] = biological target: NDUFB7, P17568
# Experimental: as §1
# [18] = biological target: NUDT16L1, Q9BRJ7
# Experimental: as §1
# [19] = biological target: PDLIM7, Q9NR12
# Experimental: as §1
# [20] = biological target: PLK1, P53350
# Experimental: as §1
# [21] = biological target: PPIL2, Q13356
# Experimental: as §1
# [22] = biological target: PUSL1, Q8N0Z8
# Experimental: as §1
# [23] = biological target: PYCR1, P32322
# Experimental: as §1
# [24] = biological target: RBMXL1, Q96E39
# Experimental: as §1
# [25] = biological target: RTCB, Q9Y3I0
# Experimental: as §1
# [26] = biological target: RTRAF, Q9Y224
# Experimental: as §1
# [27] = biological target: SFPQ, P23246
# Experimental: as §1
# [28] = biological target: SLC9A3R2, Q15599
# Experimental: as §1
# [29] = biological target: SNX27, Q96L92
# Experimental: as §1
# [30] = biological target: SRI, P30626
# Experimental: as §1
# [31] = biological target: TAF15, Q92804
# Experimental: as §1
# [32] = biological target: AP2M1, Q96CW1
# Experimental: as §1
# [33] = biological target: COX4I1, P13073
# Experimental: as §1
# [34] = biological target: EIF2B3, Q9NR50
# Experimental: as §1
# [35] = biological target: EIF3B, P55884
# Experimental: as §1
# [36] = biological target: HINT1, P49773
# Experimental: as §1
# [37] = biological target: KHDRBS1, Q07666
# Experimental: as §1
# [38] = biological target: NDUFA10, O95299
# Experimental: as §1
# [39] = biological target: NME4, O00746
# Experimental: as §1
# [40] = substrate: NONO, Q15233
# Experimental: as §1
# [41] = biological target: NUDT21, O43809
# Experimental: as §1
# [42] = biological target: SOAT1, P35610
# Experimental: as §1
# [43] = biological target: SPAG7, O75391
# Experimental: as §1
# [44] = biological target: TNRC6A, Q8NDV7
# Experimental: as §1
# [45] = biological target: YIF1A, O95070
# Experimental: as §1
# [46] = biological target: ZNF687, Q8N1G0
# Experimental: as §1
# [47] = biological target: ZNF770, Q6IQ21
# Experimental: as §1
# [48] = biological target: ARL6IP4, Q66PJ3
# Experimental: as §1
# [49] = biological target: ATR, Q13535
# Experimental: as §1
# [50] = biological target: ATXN2L, Q8WWM7
# Experimental: as §1
# [51] = biological target: C1orf131, Q8NDD1
# Experimental: as §1
# [52] = biological target: CFDP1, Q9UEE9
# Experimental: as §1
# [53] = substrate: CNP, P09543
# Experimental: as §1
# [54] = biological target: COG4, Q9H9E3
# Experimental: as §1
# [55] = biological target: CORO7-PAM16
# Experimental: as §1
# [56] = biological target: CPS1, P31327
# Experimental: as §1
# [57] = biological target: DCAF7, P61962
# Experimental: as §1
# [58] = biological target: DFFA, O00273
# Experimental: as §1
# [59] = biological target: DNAJB6, O75190
# Experimental: as §1
# [60] = biological target: DPY30, Q9C005
# Experimental: as §1
# [61] = biological target: DSC1, Q08554
# Experimental: as §1
# [62] = biological target: EHHADH, Q08426
# Experimental: as §1
# [63] = biological target: EMD, P50402
# Experimental: as §1
# [64] = biological target: GEMIN4, P57678
# Experimental: as §1
# [65] = biological target: HP, P00738
# Experimental: as §1
# [66] = biological target: ITSN2, Q9NZM3
# Experimental: as §1
# [67] = biological target: KIF22, Q14807
# Experimental: as §1
# [68] = biological target: KRI1, Q8N9T8
# Experimental: as §1
# [69] = biological target: MCM6, Q14566
# Experimental: as §1
# [70] = biological target: MED23, Q9ULK4
# Experimental: as §1
# [71] = biological target: NOLC1, Q14978
# Experimental: as §1
# [72] = biological target: PACSIN2, Q9UNF0
# Experimental: as §1
# [73] = biological target: PAK4, O96013
# Experimental: as §1
# [74] = biological target: PSRC1, Q6PGN9
# Experimental: as §1
# [75] = biological target: RAB6A, P20340
# Experimental: as §1
# [76] = biological target: RANBP2, P49792
# Experimental: as §1
# [77] = biological target: RCL1, Q9Y2P8
# Experimental: as §1
# [78] = biological target: SAAL1, Q96ER3
# Experimental: as §1
# [79] = biological target: SLC35F6, Q8N357
# Experimental: as §1
# [80] = biological target: SNRNP200, O75643
# Experimental: as §1
# [81] = biological target: TAF5, Q15542
# Experimental: as §1
# [82] = biological target: TBRG4, Q969Z0
# Experimental: as §1
# [83] = biological target: TRMT112, Q9UI30
# Experimental: as §1
# [84] = biological target: UBAP2L, Q14157
# Experimental: as §1
# [85] = biological target: VIM, P08670
# Experimental: as §1
# [86] = biological target: VPS52, Q8N1B4
# Experimental: as §1
# [87] = biological target: ZW10, O43264
# Experimental: as §1
# [88] = biological target: ZZEF1, O43149
# Experimental: as §1
binder,measurement,setting,value
MPRRHEPVWEMTGFF [NAV2-AS2_2],PRISMA enrichment of interactor (log2),[1],3.84
same,PRISMA enrichment of interactor (log2),[2],4.68
same,PRISMA enrichment of interactor (log2),[3],5.19
same,PRISMA enrichment of interactor (log2),[4],6.02
same,PRISMA enrichment of interactor (log2),[5],4.92
same,PRISMA enrichment of interactor (log2),[6],4.23
same,PRISMA enrichment of interactor (log2),[7],4.97
same,PRISMA enrichment of interactor (log2),[8],7.5
same,PRISMA enrichment of interactor (log2),[9],4.7
same,PRISMA enrichment of interactor (log2),[10],6.42
same,PRISMA enrichment of interactor (log2),[11],7.67
same,PRISMA enrichment of interactor (log2),[12],4.68
same,PRISMA enrichment of interactor (log2),[13],4.86
same,PRISMA enrichment of interactor (log2),[14],4.76
same,PRISMA enrichment of interactor (log2),[15],5.19
same,PRISMA enrichment of interactor (log2),[16],5.22
same,PRISMA enrichment of interactor (log2),[17],4.99
same,PRISMA enrichment of interactor (log2),[18],5.03
same,PRISMA enrichment of interactor (log2),[19],5.08
same,PRISMA enrichment of interactor (log2),[20],4.71
same,PRISMA enrichment of interactor (log2),[21],5.31
same,PRISMA enrichment of interactor (log2),[22],4.34
same,PRISMA enrichment of interactor (log2),[23],4.6
same,PRISMA enrichment of interactor (log2),[24],4.43
same,PRISMA enrichment of interactor (log2),[25],5.64
same,PRISMA enrichment of interactor (log2),[26],5.78
same,PRISMA enrichment of interactor (log2),[27],5.34
same,PRISMA enrichment of interactor (log2),[28],5.15
same,PRISMA enrichment of interactor (log2),[29],5.03
same,PRISMA enrichment of interactor (log2),[30],4.23
same,PRISMA enrichment of interactor (log2),[31],6.12
DPWGRNEAWRYMGGF [NDUFB3],PRISMA enrichment of interactor (log2),[1],5.99
same,PRISMA enrichment of interactor (log2),[2],4.77
same,PRISMA enrichment of interactor (log2),[3],5.51
same,PRISMA enrichment of interactor (log2),[32],4.97
same,PRISMA enrichment of interactor (log2),[33],4.65
same,PRISMA enrichment of interactor (log2),[34],7.81
same,PRISMA enrichment of interactor (log2),[35],4.91
same,PRISMA enrichment of interactor (log2),[8],6.63
same,PRISMA enrichment of interactor (log2),[11],5.35
same,PRISMA enrichment of interactor (log2),[36],6.07
same,PRISMA enrichment of interactor (log2),[15],4.71
same,PRISMA enrichment of interactor (log2),[16],4.95
same,PRISMA enrichment of interactor (log2),[37],5.43
same,PRISMA enrichment of interactor (log2),[38],5.15
same,PRISMA enrichment of interactor (log2),[39],4.33
same,PRISMA enrichment of interactor (log2),[40],4.86
same,PRISMA enrichment of interactor (log2),[41],4.3
same,PRISMA enrichment of interactor (log2),[27],5.39
same,PRISMA enrichment of interactor (log2),[42],4.62
same,PRISMA enrichment of interactor (log2),[43],3.78
same,PRISMA enrichment of interactor (log2),[44],4.54
same,PRISMA enrichment of interactor (log2),[45],4.88
same,PRISMA enrichment of interactor (log2),[46],5.13
same,PRISMA enrichment of interactor (log2),[47],4.71
QKLEDAEARERQLEK [MIEF-MP],PRISMA enrichment of interactor (log2),[1],3.91
same,PRISMA enrichment of interactor (log2),[48],4.09
same,PRISMA enrichment of interactor (log2),[49],5.94
same,PRISMA enrichment of interactor (log2),[50],4.94
same,PRISMA enrichment of interactor (log2),[51],5.29
same,PRISMA enrichment of interactor (log2),[52],5.48
same,PRISMA enrichment of interactor (log2),[53],5.94
same,PRISMA enrichment of interactor (log2),[54],6.06
same,PRISMA enrichment of interactor (log2),[55],8
same,PRISMA enrichment of interactor (log2),[56],4.77
same,PRISMA enrichment of interactor (log2),[57],5.47
same,PRISMA enrichment of interactor (log2),[58],4.66
same,PRISMA enrichment of interactor (log2),[59],7.52
same,PRISMA enrichment of interactor (log2),[60],5.86
same,PRISMA enrichment of interactor (log2),[61],5.62
same,PRISMA enrichment of interactor (log2),[62],9.84
same,PRISMA enrichment of interactor (log2),[63],7.17
same,PRISMA enrichment of interactor (log2),[9],8.81
same,PRISMA enrichment of interactor (log2),[64],10.3
same,PRISMA enrichment of interactor (log2),[65],4.56
same,PRISMA enrichment of interactor (log2),[66],8
same,PRISMA enrichment of interactor (log2),[67],5.79
same,PRISMA enrichment of interactor (log2),[68],5.55
same,PRISMA enrichment of interactor (log2),[69],4.81
same,PRISMA enrichment of interactor (log2),[70],5.32
same,PRISMA enrichment of interactor (log2),[71],7.9
same,PRISMA enrichment of interactor (log2),[72],4.35
same,PRISMA enrichment of interactor (log2),[73],6.08
same,PRISMA enrichment of interactor (log2),[74],7.72
same,PRISMA enrichment of interactor (log2),[75],4.76
same,PRISMA enrichment of interactor (log2),[76],6.87
same,PRISMA enrichment of interactor (log2),[77],5.21
same,PRISMA enrichment of interactor (log2),[78],6.02
same,PRISMA enrichment of interactor (log2),[79],4.2
same,PRISMA enrichment of interactor (log2),[80],5.1
same,PRISMA enrichment of interactor (log2),[81],4.32
same,PRISMA enrichment of interactor (log2),[82],3.83
same,PRISMA enrichment of interactor (log2),[83],5.41
same,PRISMA enrichment of interactor (log2),[84],5.64
same,PRISMA enrichment of interactor (log2),[85],4.88
same,PRISMA enrichment of interactor (log2),[86],5.87
same,PRISMA enrichment of interactor (log2),[87],4.31
same,PRISMA enrichment of interactor (log2),[88],4.13

# In a second layout: results already given.
binder	measurement	setting	value
QKLEDAEARERQLEK [MIEF-MP]	PRISMA enrichment of interactor (log2)	[67]	5.79
same	PRISMA enrichment of interactor (log2)	[68]	5.55
same	PRISMA enrichment of interactor (log2)	[69]	4.81
same	PRISMA enrichment of interactor (log2)	[70]	5.32
